Laboratory results published in patent US8216785B2, “Method for detecting neuroblastoma” (Fujifilm Corporation, priority 2008, dated 2012).
At least one compound was matched to its structure with a doubt left.

Tested on: IMR32 cells
Assay: Induction of differentiation with retinoic acid: LAPTM5 (quantitative RT-PCR) and MYCN (Western blot) expression
Type: cell-based
Details: 10 uM RA, 0, 6 and 14 days

CC1=C(/C=C/C(C)=C/C=C/C(C)=C/C(=O)O)C(C)(C)CCC1 [retinoic acid] was tested, and the LAPTM5 expression was “activation of LAPTM5 expression” and the MYCN expression was “suppression of MYCN expression”.
